Test results taken from the supplement of paper PMC10060354, “Discovery of a small molecule ligand of FRS2 that inhibits invasion and tumor growth” (Cellular Oncology, 2022).

Amino acid sequences for entries named in this document (tags omitted). A change or cut given only in a name is not applied to a line headed by its entry.
UniProt Q15293: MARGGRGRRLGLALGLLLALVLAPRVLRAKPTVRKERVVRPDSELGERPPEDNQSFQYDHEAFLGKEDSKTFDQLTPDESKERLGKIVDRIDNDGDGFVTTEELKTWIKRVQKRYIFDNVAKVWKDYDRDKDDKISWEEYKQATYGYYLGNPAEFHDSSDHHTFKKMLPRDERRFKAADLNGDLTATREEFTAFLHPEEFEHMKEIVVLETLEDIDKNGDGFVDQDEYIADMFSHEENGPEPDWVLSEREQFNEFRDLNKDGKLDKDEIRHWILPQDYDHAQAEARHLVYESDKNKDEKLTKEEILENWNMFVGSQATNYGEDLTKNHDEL
UniProt P12074, whole entry: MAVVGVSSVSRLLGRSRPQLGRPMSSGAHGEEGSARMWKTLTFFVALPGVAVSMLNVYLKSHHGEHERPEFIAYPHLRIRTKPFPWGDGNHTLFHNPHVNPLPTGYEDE
UniProt Q9Y536, whole entry: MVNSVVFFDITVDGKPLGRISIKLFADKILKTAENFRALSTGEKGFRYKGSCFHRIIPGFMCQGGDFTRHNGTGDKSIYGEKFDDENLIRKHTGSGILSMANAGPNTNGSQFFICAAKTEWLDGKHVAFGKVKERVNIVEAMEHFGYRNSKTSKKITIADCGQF
UniProt Q9P265: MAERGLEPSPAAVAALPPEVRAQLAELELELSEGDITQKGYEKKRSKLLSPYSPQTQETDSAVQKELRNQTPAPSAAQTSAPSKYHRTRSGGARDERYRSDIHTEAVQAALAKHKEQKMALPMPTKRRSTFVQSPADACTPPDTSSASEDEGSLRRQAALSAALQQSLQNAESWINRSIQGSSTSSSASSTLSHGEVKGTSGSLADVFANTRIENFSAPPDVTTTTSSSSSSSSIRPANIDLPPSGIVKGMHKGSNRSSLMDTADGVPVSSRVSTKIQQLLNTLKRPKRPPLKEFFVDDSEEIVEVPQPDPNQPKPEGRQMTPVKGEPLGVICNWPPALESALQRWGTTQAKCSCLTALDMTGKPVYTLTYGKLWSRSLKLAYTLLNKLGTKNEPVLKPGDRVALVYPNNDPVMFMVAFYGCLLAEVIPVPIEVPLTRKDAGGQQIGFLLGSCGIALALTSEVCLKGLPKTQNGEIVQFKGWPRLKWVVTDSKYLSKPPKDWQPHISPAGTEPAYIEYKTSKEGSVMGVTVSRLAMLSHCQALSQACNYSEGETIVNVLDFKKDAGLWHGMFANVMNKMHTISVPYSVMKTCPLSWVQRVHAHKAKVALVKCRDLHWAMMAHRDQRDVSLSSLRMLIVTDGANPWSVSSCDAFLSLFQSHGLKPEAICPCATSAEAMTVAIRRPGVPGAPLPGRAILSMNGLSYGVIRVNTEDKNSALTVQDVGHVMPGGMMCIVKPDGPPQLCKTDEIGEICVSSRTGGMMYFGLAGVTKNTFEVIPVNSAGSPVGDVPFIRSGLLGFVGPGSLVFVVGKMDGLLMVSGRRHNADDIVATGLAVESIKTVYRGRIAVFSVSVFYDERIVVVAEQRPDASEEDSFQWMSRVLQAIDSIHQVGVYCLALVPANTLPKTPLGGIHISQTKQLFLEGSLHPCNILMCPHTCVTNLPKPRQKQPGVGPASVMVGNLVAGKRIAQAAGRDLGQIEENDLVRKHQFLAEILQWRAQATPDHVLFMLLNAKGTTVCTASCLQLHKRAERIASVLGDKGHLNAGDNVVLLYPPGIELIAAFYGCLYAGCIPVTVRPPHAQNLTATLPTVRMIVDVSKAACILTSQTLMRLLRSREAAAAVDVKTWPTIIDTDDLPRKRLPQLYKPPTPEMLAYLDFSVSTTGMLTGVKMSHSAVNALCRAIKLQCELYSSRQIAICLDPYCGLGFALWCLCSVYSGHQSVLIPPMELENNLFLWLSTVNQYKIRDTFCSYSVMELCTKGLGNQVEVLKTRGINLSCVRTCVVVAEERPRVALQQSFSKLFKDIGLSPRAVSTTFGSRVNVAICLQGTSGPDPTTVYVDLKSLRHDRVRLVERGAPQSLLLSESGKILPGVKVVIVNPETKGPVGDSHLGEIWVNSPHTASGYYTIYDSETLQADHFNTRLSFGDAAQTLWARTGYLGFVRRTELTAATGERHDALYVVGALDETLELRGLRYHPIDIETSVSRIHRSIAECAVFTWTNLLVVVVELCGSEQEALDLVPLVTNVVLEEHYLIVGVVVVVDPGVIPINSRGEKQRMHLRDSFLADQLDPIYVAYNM
UniProt Q02218: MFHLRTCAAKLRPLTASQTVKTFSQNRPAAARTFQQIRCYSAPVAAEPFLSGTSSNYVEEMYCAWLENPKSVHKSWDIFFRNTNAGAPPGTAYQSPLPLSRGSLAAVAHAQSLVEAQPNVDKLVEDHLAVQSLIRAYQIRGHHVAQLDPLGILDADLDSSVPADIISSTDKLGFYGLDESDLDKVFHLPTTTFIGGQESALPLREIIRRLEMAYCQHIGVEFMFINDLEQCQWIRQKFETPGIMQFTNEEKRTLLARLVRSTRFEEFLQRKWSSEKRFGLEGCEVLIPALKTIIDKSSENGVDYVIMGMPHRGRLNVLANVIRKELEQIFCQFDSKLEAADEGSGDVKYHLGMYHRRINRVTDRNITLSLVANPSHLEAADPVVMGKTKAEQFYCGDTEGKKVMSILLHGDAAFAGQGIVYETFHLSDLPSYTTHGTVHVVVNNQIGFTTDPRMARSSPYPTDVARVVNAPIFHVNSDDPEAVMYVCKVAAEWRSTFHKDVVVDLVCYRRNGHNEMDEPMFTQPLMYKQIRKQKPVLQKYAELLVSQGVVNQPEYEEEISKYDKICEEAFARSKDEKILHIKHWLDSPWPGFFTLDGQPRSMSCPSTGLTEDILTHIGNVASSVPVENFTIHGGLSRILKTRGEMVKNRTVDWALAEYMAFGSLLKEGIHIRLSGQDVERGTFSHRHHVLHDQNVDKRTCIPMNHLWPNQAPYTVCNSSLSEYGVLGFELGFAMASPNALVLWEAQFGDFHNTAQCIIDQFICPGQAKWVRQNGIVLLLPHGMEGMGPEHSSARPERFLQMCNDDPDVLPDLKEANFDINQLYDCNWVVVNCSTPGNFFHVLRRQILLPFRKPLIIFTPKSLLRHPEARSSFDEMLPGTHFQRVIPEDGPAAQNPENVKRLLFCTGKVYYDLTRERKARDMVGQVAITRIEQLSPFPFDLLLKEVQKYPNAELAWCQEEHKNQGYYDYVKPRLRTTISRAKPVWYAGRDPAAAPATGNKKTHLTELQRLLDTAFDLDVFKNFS
UniProt Q9BRK5: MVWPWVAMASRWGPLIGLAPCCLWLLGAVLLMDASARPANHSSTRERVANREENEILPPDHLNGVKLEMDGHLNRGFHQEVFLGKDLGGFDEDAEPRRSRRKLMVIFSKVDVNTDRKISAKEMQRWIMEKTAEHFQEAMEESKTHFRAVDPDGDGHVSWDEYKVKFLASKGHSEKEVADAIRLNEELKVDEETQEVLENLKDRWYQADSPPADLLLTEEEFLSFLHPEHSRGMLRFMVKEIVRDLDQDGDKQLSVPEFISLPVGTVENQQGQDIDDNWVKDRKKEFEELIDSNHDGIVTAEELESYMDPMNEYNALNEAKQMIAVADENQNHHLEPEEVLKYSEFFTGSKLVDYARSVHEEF
UniProt Q9NSQ0: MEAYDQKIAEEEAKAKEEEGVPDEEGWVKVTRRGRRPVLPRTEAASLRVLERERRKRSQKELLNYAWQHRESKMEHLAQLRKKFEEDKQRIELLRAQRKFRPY
UniProt O95639, whole entry: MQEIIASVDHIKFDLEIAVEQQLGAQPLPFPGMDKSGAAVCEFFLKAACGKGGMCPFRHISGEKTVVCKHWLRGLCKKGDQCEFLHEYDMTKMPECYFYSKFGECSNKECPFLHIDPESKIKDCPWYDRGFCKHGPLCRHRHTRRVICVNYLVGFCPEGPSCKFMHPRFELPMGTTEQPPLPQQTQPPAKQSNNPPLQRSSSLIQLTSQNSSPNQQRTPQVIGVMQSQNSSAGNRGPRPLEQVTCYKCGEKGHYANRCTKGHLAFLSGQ
UniProt P40121: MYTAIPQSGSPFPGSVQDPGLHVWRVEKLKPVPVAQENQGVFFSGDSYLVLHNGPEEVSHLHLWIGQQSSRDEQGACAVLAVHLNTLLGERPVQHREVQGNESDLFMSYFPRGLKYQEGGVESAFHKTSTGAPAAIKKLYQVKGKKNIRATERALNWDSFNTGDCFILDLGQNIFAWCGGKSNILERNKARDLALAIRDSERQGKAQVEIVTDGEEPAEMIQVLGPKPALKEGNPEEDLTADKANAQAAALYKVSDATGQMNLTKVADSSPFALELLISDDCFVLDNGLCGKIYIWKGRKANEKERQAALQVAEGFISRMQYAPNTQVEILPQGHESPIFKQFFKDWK
UniProt O43482, whole entry: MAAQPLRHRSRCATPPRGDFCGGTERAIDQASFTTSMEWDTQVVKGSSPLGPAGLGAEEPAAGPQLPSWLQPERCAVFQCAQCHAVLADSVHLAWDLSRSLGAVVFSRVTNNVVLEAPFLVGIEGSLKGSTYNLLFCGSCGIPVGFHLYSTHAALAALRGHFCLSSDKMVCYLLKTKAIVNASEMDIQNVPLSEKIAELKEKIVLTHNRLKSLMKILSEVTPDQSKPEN
UniProt O75208: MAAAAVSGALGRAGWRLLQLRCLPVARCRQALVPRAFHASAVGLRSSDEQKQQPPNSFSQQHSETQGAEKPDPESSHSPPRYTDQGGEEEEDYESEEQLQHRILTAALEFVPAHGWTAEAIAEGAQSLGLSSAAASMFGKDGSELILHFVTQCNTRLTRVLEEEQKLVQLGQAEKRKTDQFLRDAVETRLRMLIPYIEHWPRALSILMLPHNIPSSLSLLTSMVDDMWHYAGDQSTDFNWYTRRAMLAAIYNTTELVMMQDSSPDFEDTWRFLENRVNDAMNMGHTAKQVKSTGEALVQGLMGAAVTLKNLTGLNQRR
UniProt P51003: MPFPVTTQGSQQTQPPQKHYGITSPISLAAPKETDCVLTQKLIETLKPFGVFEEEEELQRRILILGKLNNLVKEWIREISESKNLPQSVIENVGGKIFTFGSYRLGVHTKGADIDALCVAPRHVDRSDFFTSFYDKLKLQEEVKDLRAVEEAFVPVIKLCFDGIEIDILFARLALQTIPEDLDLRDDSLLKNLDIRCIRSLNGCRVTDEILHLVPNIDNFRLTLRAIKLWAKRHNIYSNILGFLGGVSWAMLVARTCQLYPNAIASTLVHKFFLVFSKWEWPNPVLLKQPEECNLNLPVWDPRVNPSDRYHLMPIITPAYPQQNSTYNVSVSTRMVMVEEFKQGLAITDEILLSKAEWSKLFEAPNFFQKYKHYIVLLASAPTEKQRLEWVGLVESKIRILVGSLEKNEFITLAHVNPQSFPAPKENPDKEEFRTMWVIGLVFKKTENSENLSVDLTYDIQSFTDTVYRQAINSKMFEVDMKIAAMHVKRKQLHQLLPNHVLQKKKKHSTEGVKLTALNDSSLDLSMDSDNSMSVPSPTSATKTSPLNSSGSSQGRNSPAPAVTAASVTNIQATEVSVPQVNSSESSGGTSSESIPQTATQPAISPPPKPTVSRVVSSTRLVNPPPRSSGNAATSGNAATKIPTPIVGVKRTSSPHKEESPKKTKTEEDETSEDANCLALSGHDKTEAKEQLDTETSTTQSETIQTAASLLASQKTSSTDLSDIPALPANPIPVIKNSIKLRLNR
UniProt P61326, whole entry: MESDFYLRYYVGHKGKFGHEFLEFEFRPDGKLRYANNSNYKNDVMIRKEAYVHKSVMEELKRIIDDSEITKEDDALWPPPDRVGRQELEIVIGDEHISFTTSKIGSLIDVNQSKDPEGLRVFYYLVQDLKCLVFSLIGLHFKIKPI
UniProt P29762, whole entry: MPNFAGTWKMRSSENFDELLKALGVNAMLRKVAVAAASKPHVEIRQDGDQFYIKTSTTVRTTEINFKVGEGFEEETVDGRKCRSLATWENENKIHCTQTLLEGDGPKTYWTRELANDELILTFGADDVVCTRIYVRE
UniProt Q8NHP6: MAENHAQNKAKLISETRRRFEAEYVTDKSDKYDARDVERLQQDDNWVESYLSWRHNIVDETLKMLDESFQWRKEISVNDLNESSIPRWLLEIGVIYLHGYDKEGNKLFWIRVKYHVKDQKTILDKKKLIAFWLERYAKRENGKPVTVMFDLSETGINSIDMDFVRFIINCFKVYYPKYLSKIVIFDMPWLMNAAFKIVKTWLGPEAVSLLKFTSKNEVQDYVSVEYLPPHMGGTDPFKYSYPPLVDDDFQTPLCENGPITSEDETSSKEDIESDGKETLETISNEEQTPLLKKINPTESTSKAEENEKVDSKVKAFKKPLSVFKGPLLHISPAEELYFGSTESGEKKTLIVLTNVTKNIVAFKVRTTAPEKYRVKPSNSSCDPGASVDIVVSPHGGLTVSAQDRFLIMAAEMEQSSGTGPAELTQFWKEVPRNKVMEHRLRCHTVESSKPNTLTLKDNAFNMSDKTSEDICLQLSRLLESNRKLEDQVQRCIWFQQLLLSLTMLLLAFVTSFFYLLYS
UniProt Q68D20: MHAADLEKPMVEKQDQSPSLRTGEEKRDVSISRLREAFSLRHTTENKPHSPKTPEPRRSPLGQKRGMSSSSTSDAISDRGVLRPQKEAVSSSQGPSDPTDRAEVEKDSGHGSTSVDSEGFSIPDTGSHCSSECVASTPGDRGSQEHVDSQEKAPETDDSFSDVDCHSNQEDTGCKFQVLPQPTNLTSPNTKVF

Compound: [O-][N+](C(C1=C(C(O)=C2)NC(C(C=C3)=CC=C3Cl)C4C1C=CC4)=C2Cl)=O
Test: melting temperature shift (compound 7 minus DMSO); higher = compound stabilises the protein
Details: 10 µM
Procedure: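 Thermal proteome profiling (TMT mass spectrometry) in intact DAOY medulloblastoma cells or DAOY lysates treated with 10 µM compound 7 or DMSO, heated at 10 temperatures from 40.5 to 73.8 °C for 3 min. Melting curves were fitted with the Bioconductor TPP package, and the melting point difference between compound and vehicle is reported per protein (single curve per condition).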

[1] = system: DAOY cell lysate, treatment time: 20 min, 4 °C
[2] = system: intact DAOY cells, treatment time: 90 min, 37 °C

Row | Target | melting temperature shift [1] [°C] | melting temperature shift [2] [°C]
1 | UBR2 (UniProt Q8IWV8) | -1.42 | 1.2
2 | RCN1 (UniProt Q15293) | 1.09 | –
3 | UniProt P12074 | 1.45 | –
4 | UniProt Q9Y536 | – | 0.238
5 | UniProt Q460N5 | -0.59 | 3.9
6 | DIP2B (UniProt Q9P265) | -1.03 | 0.35
7 | OGDH (UniProt Q02218) | 0.166 | -0.113
8 | UniProt Q8ND30 | – | 0.194
9 | UniProt Q9H492 | – | 0.0355
10 | DAP3 (UniProt P51398) | 1.03 | -0.77
11 | EDC3 (UniProt Q96F86) | -0.512 | 0.0898
12 | RPL32 (UniProt P62910) | 0.737 | -0.688
13 | FASN (UniProt P49327) | -0.17 | 0.421
14 | SDF4 (UniProt Q9BRK5) | 1.14 | 1.89
15 | UniProt A6NNZ2 | – | -0.819
16 | GSPT2 (UniProt Q8IYD1) | -0.326 | -1.05
17 | UniProt Q9NSQ0 | 0.185 | –
18 | UniProt Q9UH03 | – | -0.0976
19 | QTRT1 (UniProt Q9BXR0) | -2.32 | -0.148
20 | DNAJC8 (UniProt O75937) | -0.637 | -0.375
21 | UniProt Q71UM5 | – | -1.49
22 | UniProt P17900 | -0.911 | –
23 | THEM4 (UniProt Q5T1C6) | 0.456 | -0.553
24 | UniProt Q6P179 | 0.767 | -0.0719

Row | Target | melting temperature shift [1] [°C] | melting temperature shift [2] [°C]
25 | KLHL11 (UniProt Q9NVR0) | 1.35 | –
26 | SUCLG1 (UniProt P53597) | 0.313 | -2.01
27 | UniProt O95639 | 0.375 | –
28 | NAMPT (UniProt P43490) | -0.921 | -0.115
29 | UniProt P50895 | -0.95 | –
30 | PLAA (UniProt Q9Y263) | -0.37 | -0.431
31 | UniProt P22413 | 1.23 | –
32 | UniProt Q8TB92 | – | -0.572
33 | ZNF330 (UniProt Q9Y3S2) | – | 2.03
34 | UniProt Q99719 | – | -1.04
35 | PPIL2 (UniProt Q13356) | – | 4.77
36 | CCDC53 (UniProt Q9Y3C0) | -1.07 | -1.23
37 | UniProt Q96N64 | -1.12 | –
38 | CAPG (UniProt P40121) | 0.25 | 0.65
39 | ALG8 (UniProt Q9BVK2) | 0.732 | –
40 | MRPL4 (UniProt Q9BYD3) | 0.176 | 0.178
41 | CBFB (UniProt Q13951) | -0.243 | 0.429
42 | USP25 (UniProt Q9UHP3) | – | -1.18
43 | CCNH (UniProt P51946) | -0.807 | -0.921
44 | RIF1 (UniProt Q5UIP0) | -0.816 | -1.15
45 | CDC27 (UniProt P30260) | -0.101 | 0.364
46 | CAV2 (UniProt P51636) | 0.959 | –
47 | NAA15 (UniProt Q9BXJ9) | -0.215 | -0.5
48 | UniProt O43482 | -0.421 | –

Row | Target | melting temperature shift [1] [°C] | melting temperature shift [2] [°C]
49 | UniProt P24001 | 1.01 | -0.358
50 | UniProt Q15013 | -0.718 | –
51 | PTPRF (UniProt P10586) | 0.811 | 0.507
52 | COQ9 (UniProt O75208) | 1.39 | 1
53 | CPSF6 (UniProt Q16630) | -0.45 | -0.74
54 | PAPOLA (UniProt P51003) | -0.365 | -1.12
55 | EARS2 (UniProt Q5JPH6) | -1.85 | -1.69
56 | ARF5 (UniProt P84085) | 0.0398 | -2.01
57 | SEPHS1 (UniProt P49903) | 2.01 | –
58 | UniProt P61326 | -0.0916 | 1.32
59 | GIT1 (UniProt Q9Y2X7) | -1.01 | -0.689
60 | SMARCA5 (UniProt O60264) | 0.117 | -0.211
61 | SLC30A7 (UniProt Q8NEW0) | -0.45 | -0.18
62 | UniProt P29762 | -0.28 | 0.426
63 | COG4 (UniProt Q9H9E3) | -0.489 | -1.15
64 | SMG9 (UniProt Q9H0W8) | -0.0469 | –
65 | GAR1 (UniProt Q9NY12) | 0.88 | 0.448
66 | GFM1 (UniProt Q96RP9) | -0.0164 | -0.064
67 | UniProt P23219 | – | -0.155
68 | SDE2 (UniProt Q6IQ49) | -1.69 | -2.72
69 | IARS2 (UniProt Q9NSE4) | 0.545 | -0.693
70 | UniProt Q9UL42 | -1.02 | -0.114
71 | UniProt P42166 | 0.766 | -0.783
72 | UniProt P52738 | – | 1.18

Some of the entries so far, as tab-separated lines.
Row	Target	melting temperature shift [1] [°C]	melting temperature shift [2] [°C]
43	CCNH (UniProt P51946)	-0.807	-0.921
44	RIF1 (UniProt Q5UIP0)	-0.816	-1.15
45	CDC27 (UniProt P30260)	-0.101	0.364
46	CAV2 (UniProt P51636)	0.959	–
47	NAA15 (UniProt Q9BXJ9)	-0.215	-0.5
48	UniProt O43482	-0.421	–
49	UniProt P24001	1.01	-0.358
50	UniProt Q15013	-0.718	–
51	PTPRF (UniProt P10586)	0.811	0.507
52	COQ9 (UniProt O75208)	1.39	1
53	CPSF6 (UniProt Q16630)	-0.45	-0.74
54	PAPOLA (UniProt P51003)	-0.365	-1.12
55	EARS2 (UniProt Q5JPH6)	-1.85	-1.69
56	ARF5 (UniProt P84085)	0.0398	-2.01
57	SEPHS1 (UniProt P49903)	2.01	–
58	UniProt P61326	-0.0916	1.32
59	GIT1 (UniProt Q9Y2X7)	-1.01	-0.689
60	SMARCA5 (UniProt O60264)	0.117	-0.211
61	SLC30A7 (UniProt Q8NEW0)	-0.45	-0.18
62	UniProt P29762	-0.28	0.426
63	COG4 (UniProt Q9H9E3)	-0.489	-1.15
64	SMG9 (UniProt Q9H0W8)	-0.0469	–
65	GAR1 (UniProt Q9NY12)	0.88	0.448
66	GFM1 (UniProt Q96RP9)	-0.0164	-0.064
67	UniProt P23219	–	-0.155
68	SDE2 (UniProt Q6IQ49)	-1.69	-2.72
69	IARS2 (UniProt Q9NSE4)	0.545	-0.693

(continued)

Row | Target | melting temperature shift [1] [°C] | melting temperature shift [2] [°C]
73 | UniProt Q9H334 | 0.468 | 0.347
74 | R3HCC1L (UniProt Q7Z5L2) | 0.767 | –
75 | UniProt Q13523 | -0.273 | -0.972
76 | UniProt E7EU14 | – | 0.49
77 | UniProt Q96AX2 | – | -1.53
78 | MOSPD2 (UniProt Q8NHP6) | 0.149 | 0.849
79 | LLGL1 (UniProt Q15334) | -1.25 | 0.986
80 | DDX55 (UniProt Q8NHQ9) | 1.52 | –
81 | DBT (UniProt P11182) | 0.884 | -0.0493
82 | MSH6 (UniProt P52701) | -1.61 | -0.831
83 | SMAP1 (UniProt Q8IYB5) | -0.7 | -0.0545
84 | CMSS1 (UniProt Q9BQ75) | 1.56 | –
85 | FPGT (UniProt O14772) | 0.354 | –
86 | UniProt Q9NRD5 | – | -0.647
87 | FAM210A (UniProt Q96ND0) | 1.27 | 2.22
88 | ARIH1 (UniProt Q9Y4X5) | -0.0318 | 1.44
89 | FAM98A (UniProt Q8NCA5) | -0.302 | 0.629
90 | XRCC1 (UniProt P18887) | 1.18 | -1.34
91 | MRPS21 (UniProt P82921) | -0.315 | -1.91
92 | UniProt Q8TEV9 | 0.431 | –
93 | UniProt Q68D20 | – | 1.86
94 | VPS51 (UniProt Q9UID3) | -0.448 | –
95 | MRRF (UniProt Q96E11) | 0.22 | -0.994

Repeats are few or missing, and single values can be far off.
